Experimental data as given in patent US10227357B2, “Compounds and methods for kinase modulation, and indications therefor” (Plexxikon Inc., priority 2012, dated 2019).
Some entries share one result that the patent states for a list of compounds.

The chains behind the UniProt entries cited, without tags or fusion partners.
UniProt P10721, whole entry D816V: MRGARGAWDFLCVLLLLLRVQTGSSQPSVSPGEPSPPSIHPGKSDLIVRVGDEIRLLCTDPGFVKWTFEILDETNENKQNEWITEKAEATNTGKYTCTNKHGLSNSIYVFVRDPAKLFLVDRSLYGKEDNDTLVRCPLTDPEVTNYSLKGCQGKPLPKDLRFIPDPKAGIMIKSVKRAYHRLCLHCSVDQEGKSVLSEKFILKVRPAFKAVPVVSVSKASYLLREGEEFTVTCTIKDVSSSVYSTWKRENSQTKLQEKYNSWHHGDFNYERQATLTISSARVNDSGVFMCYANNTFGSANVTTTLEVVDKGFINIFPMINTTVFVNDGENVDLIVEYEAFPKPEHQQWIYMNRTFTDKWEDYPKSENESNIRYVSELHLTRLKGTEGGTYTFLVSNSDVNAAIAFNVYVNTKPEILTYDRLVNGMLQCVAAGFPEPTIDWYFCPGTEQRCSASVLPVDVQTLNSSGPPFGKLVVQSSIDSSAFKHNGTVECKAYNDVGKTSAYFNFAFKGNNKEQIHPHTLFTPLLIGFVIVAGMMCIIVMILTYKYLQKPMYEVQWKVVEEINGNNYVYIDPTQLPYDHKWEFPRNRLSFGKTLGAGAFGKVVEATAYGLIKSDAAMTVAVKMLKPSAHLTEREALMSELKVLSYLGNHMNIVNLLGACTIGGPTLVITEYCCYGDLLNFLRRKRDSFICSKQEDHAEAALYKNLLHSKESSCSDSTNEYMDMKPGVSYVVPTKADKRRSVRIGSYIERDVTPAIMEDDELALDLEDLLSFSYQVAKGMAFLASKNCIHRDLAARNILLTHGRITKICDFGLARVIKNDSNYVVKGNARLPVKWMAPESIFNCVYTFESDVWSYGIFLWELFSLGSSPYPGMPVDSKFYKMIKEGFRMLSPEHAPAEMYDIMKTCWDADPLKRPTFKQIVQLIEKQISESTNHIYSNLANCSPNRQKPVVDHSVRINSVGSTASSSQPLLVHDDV

Each molecule was assayed against BaF3-FL KIT D816V cells (Homo sapiens, UniProt P10721, D816V, cells depend on it, form not given) (assay: Cell-based assay of c-Kit mutant kinase activity, BaF3-FL KIT D816V cell proliferation (ATPlite)). Conditions: in at least one of the c-kit cell assays described in Example 28 (BaF3-FL KIT D816V or BaF3-FL KIT V560G/D816V); read-out: IC50 (the source's name).
With `O=C(NCCc1ccc(F)cc1)N1CCN(c2ncnc3[nH]ccc23)CC1` [P-0164, N-[2-(4-fluorophenyl)ethyl]-4-(7H-pyrrolo[2,3-d]pyrimidin-4-yl)piperazine-1-carboxamide] the GI50 was < 10 µM.
With `O=C(Nc1ccc(F)c(Cl)c1)N1CCN(c2ncnc3[nH]ccc23)CC1` [P-0165, N-(3-chloro-4-fluoro-phenyl)-4-(7H-pyrrolo[2,3-d]pyrimidin-4-yl)piperazine-1-carboxamide] the GI50 was < 10 µM.
`O=C(Nc1cccc(C(F)(F)F)c1)N1CCN(c2ncnc3[nH]ccc23)CC1` [P-0167, 4-(7H-pyrrolo[2,3-d]pyrimidin-4-yl)-N-[3-(trifluoromethyl)phenyl]piperazine-1-carboxamide] was tested, and the GI50 was < 10 µM.
For `O=C(Nc1cccc(Cl)c1)N1CCN(c2ncnc3[nH]ccc23)CC1` [P-0168, N-(3-chlorophenyl)-4-(7H-pyrrolo[2,3-d]pyrimidin-4-yl)piperazine-1-carboxamide], the GI50 was < 10 µM.
`O=C(Nc1ccc(Cl)cc1)N1CCN(c2ncnc3[nH]ccc23)CC1` [P-0171, N-(4-chlorophenyl)-4-(7H-pyrrolo[2,3-d]pyrimidin-4-yl)piperazine-1-carboxamide] was tested, and the GI50 was < 10 µM.
`COc1ccc(NC(=O)N2CCN(c3ncnc4[nH]ccc34)CC2)cc1OC` [P-0173, N-(3,4-dimethoxyphenyl)-4-(7H-pyrrolo[2,3-d]pyrimidin-4-yl)piperazine-1-carboxamide] was tested, and the GI50 was < 10 µM.
For `O=C(NC(=O)N1CCN(c2ncnc3[nH]ccc23)CC1)c1ccccc1` [P-0174, N-benzoyl-4-(7H-pyrrolo[2,3-d]pyrimidin-4-yl)piperazine-1-carboxamide], the GI50 was < 10 µM.
In the case of `O=C(Nc1ccc(F)c(F)c1)N1CCN(c2ncnc3[nH]ccc23)CC1` [P-0175, N-(3,4-difluorophenyl)-4-(7H-pyrrolo[2,3-d]pyrimidin-4-yl)piperazine-1-carboxamide], the GI50 is reported as < 10 µM.
In the case of `CCc1ccc(S(=O)(=O)N2CCN(c3ncnc4[nH]ccc34)CC2)cc1` [P-0176, 4-[4-(4-ethylphenyl)sulfonylpiperazin-1-yl]-7H-pyrrolo[2,3-d]pyrimidine], the GI50 is reported as < 10 µM.
For `O=C(NCc1ccc(F)cc1)N1CCN(c2ncnc3[nH]cc(C4CC4)c23)CC1` [P-0179, 4-(5-cyclopropyl-7H-pyrrolo[2,3-d]pyrimidin-4-yl)-N-[(4-fluorophenyl)methyl]piperazine-1-carboxamide], the GI50 was < 10 µM.
In the case of `O=C(NCc1ccc(C(F)(F)F)nc1)N1CCN(c2ncnc3[nH]c(-c4ccc(Cl)cc4)cc23)CC1` [P-0180, 4-[6-(4-chlorophenyl)-7H-pyrrolo[2,3-d]pyrimidin-4-yl]-N-[[6-(trifluoromethyl)-3-pyridyl]methyl]piperazine-1-carboxamide], the GI50 is reported as < 10 µM.
With `CCOc1ccc(NC(=O)N2CCN(c3ncnc4[nH]c(C)cc34)CC2)cc1` [P-0181, N-(4-ethoxyphenyl)-4-(6-methyl-7H-pyrrolo[2,3-d]pyrimidin-4-yl)piperazine-1-carboxamide] the GI50 was < 10 µM.
With `O=C(NCc1ccc(F)cc1)N1CCN(c2ncnc3[nH]ccc23)CC1` [P-0182, N-[(4-fluorophenyl)methyl]-4-(7H-pyrrolo[2,3-d]pyrimidin-4-yl)piperazine-1-carboxamide] the GI50 was < 10 µM.
With `COc1ccc(S(=O)(=O)N2CCN(c3ncnc4[nH]ccc34)CC2)c([N+](=O)[O-])c1` [P-0185, 4-[4-(4-methoxy-2-nitro-phenyl)sulfonylpiperazin-1-yl]-7H-pyrrolo[2,3-d]pyrimidine] the GI50 was < 10 µM.
`Cc1ccccc1Cc1c[nH]c2ncnc(N3CCN(C(=O)OC(C)(C)C)CC3)c12` [P-0186, tert-butyl 4-[5-(o-tolylmethyl)-7H-pyrrolo[2,3-d]pyrimidin-4-yl]piperazine-1-carboxylate] was tested, and the GI50 was < 10 µM.
With `Cc1ccccc1C(=O)c1c[nH]c2ncnc(N3CCN(C(=O)OC(C)(C)C)CC3)c12` [P-0187, tert-butyl 4-[5-(2-methylbenzoyl)-7H-pyrrolo[2,3-d]pyrimidin-4-yl]piperazine-1-carboxylate] the GI50 was < 10 µM.
`C[C@H](NC(=O)N1CCN(c2ncnc3[nH]c(-c4ccc(Cl)cc4)cc23)CC1)c1ccc(Cl)cc1` [P-0188, N-[(1S)-1-(4-chlorophenyl)ethyl]-4-[6-(4-chlorophenyl)-7H-pyrrolo[2,3-d]pyrimidin-4-yl]piperazine-1-carboxamide] was tested, and the GI50 was < 10 µM.
`C[C@H](NC(=O)N1CCN(c2ncnc3[nH]c(-c4cccnc4)cc23)CC1)c1ccc(Cl)cc1` [P-0189, N-[(1S)-1-(4-chlorophenyl)ethyl]-4-[6-(3-pyridyl)-7H-pyrrolo[2,3-d]pyrimidin-4-yl]piperazine-1-carboxamide] was tested, and the GI50 was < 10 µM.
In the case of `COc1ccc(S(=O)(=O)N2CCN(c3ncnc4[nH]ccc34)CC2)c(N)c1` [P-0190, 5-methoxy-2-[4-(7H-pyrrolo[2,3-d]pyrimidin-4-yl)piperazin-1-yl]sulfonyl-aniline], the GI50 is reported as < 10 µM.
In the case of `O=C(Nc1ccc(OC(F)(F)F)cc1)N1CCN(c2ncnc3[nH]c(I)cc23)CC1` [P-0191, 4-(6-iodo-7H-pyrrolo[2,3-d]pyrimidin-4-yl)-N-[4-(trifluoromethoxy)phenyl]piperazine-1-carboxamide], the GI50 is reported as < 10 µM.
For `O=C(NCc1ccc(F)cc1)N1CCN(c2ncnc3[nH]c(I)cc23)CC1` [P-0192, N-[(4-fluorophenyl)methyl]-4-(6-iodo-7H-pyrrolo[2,3-d]pyrimidin-4-yl)piperazine-1-carboxamide], the GI50 was < 10 µM.
In the case of `O=C(Nc1ccccc1)c1cc2c(N3CCN(C(=O)NCc4ccc(F)cc4)CC3)ncnc2[nH]1` [P-0193, 4-[4-[(4-fluorophenyl)methylcarbamoyl]piperazin-1-yl]-N-phenyl-7H-pyrrolo[2,3-d]pyrimidine-6-carboxamide], the GI50 is reported as < 10 µM.
With `CCCC(=O)N1CCN(c2ncnc3[nH]ccc23)CC1` [P-0194, 1-[4-(7H-pyrrolo[2,3-d]pyrimidin-4-yl)piperazin-1-yl]butan-1-one] the GI50 was < 10 µM.
`O=C(C1CCCCC1)N1CCN(c2ncnc3[nH]ccc23)CC1` [P-0195, cyclohexyl-[4-(7H-pyrrolo[2,3-d]pyrimidin-4-yl)piperazin-1-yl]methanone] was tested, and the GI50 was < 10 µM.
With `O=C(C1CCCC1)N1CCN(c2ncnc3[nH]ccc23)CC1` [P-0196, cyclopentyl-[4-(7H-pyrrolo[2,3-d]pyrimidin-4-yl)piperazin-1-yl]methanone] the GI50 was < 10 µM.
With `CCc1ccc(C(=O)N2CCN(c3ncnc4[nH]ccc34)CC2)cc1` [P-0197, (4-ethylphenyl)-[4-(7H-pyrrolo[2,3-d]pyrimidin-4-yl)piperazin-1-yl]methanone] the GI50 was < 10 µM.
In the case of `O=C(c1ccccc1)N1CCN(c2ncnc3[nH]ccc23)CC1` [P-0198, phenyl-[4-(7H-pyrrolo[2,3-d]pyrimidin-4-yl)piperazin-1-yl]methanone], the GI50 is reported as < 10 µM.
`CCCS(=O)(=O)N1CCN(c2ncnc3[nH]ccc23)CC1` [P-0199, 4-(4-propylsulfonylpiperazin-1-yl)-7H-pyrrolo[2,3-d]pyrimidine] was tested, and the GI50 was < 10 µM.
`O=S(=O)(c1ccccc1)N1CCN(c2ncnc3[nH]ccc23)CC1` [P-0200, 4-[4-(benzenesulfonyl)piperazin-1-yl]-7H-pyrrolo[2,3-d]pyrimidine] was tested, and the GI50 was < 10 µM.
For `CCOc1ccc(NC(=O)N2CCN(c3ncnc4[nH]ccc34)CC2)cc1` [P-0201, N-(4-ethoxyphenyl)-4-(7H-pyrrolo[2,3-d]pyrimidin-4-yl)piperazine-1-carboxamide], the GI50 was < 10 µM.
In the case of `CCc1ccc(NC(=O)N2CCN(c3ncnc4[nH]ccc34)CC2)cc1` [P-0202, N-(4-ethylphenyl)-4-(7H-pyrrolo[2,3-d]pyrimidin-4-yl)piperazine-1-carboxamide], the GI50 is reported as < 10 µM.
